# This is one part of the list. Most entries show no effect beyond the scatter of the controls.
# The chains behind the UniProt entries cited, without tags or fusion partners. Where a name states a change or a piece, a line headed by the entry shows the natural chain unless it says otherwise.
# UniProt Q14141: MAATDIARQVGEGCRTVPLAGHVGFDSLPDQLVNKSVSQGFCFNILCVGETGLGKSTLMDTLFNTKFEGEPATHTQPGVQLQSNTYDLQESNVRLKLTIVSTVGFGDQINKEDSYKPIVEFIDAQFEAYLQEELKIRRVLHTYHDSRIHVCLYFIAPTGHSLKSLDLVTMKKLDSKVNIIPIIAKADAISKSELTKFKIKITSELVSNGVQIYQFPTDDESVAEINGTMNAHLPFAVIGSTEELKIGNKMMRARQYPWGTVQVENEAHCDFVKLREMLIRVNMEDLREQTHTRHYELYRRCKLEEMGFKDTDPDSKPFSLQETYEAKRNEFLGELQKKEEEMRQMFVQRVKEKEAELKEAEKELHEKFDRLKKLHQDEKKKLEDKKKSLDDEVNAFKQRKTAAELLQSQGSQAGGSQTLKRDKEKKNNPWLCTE
# UniProt Q14676: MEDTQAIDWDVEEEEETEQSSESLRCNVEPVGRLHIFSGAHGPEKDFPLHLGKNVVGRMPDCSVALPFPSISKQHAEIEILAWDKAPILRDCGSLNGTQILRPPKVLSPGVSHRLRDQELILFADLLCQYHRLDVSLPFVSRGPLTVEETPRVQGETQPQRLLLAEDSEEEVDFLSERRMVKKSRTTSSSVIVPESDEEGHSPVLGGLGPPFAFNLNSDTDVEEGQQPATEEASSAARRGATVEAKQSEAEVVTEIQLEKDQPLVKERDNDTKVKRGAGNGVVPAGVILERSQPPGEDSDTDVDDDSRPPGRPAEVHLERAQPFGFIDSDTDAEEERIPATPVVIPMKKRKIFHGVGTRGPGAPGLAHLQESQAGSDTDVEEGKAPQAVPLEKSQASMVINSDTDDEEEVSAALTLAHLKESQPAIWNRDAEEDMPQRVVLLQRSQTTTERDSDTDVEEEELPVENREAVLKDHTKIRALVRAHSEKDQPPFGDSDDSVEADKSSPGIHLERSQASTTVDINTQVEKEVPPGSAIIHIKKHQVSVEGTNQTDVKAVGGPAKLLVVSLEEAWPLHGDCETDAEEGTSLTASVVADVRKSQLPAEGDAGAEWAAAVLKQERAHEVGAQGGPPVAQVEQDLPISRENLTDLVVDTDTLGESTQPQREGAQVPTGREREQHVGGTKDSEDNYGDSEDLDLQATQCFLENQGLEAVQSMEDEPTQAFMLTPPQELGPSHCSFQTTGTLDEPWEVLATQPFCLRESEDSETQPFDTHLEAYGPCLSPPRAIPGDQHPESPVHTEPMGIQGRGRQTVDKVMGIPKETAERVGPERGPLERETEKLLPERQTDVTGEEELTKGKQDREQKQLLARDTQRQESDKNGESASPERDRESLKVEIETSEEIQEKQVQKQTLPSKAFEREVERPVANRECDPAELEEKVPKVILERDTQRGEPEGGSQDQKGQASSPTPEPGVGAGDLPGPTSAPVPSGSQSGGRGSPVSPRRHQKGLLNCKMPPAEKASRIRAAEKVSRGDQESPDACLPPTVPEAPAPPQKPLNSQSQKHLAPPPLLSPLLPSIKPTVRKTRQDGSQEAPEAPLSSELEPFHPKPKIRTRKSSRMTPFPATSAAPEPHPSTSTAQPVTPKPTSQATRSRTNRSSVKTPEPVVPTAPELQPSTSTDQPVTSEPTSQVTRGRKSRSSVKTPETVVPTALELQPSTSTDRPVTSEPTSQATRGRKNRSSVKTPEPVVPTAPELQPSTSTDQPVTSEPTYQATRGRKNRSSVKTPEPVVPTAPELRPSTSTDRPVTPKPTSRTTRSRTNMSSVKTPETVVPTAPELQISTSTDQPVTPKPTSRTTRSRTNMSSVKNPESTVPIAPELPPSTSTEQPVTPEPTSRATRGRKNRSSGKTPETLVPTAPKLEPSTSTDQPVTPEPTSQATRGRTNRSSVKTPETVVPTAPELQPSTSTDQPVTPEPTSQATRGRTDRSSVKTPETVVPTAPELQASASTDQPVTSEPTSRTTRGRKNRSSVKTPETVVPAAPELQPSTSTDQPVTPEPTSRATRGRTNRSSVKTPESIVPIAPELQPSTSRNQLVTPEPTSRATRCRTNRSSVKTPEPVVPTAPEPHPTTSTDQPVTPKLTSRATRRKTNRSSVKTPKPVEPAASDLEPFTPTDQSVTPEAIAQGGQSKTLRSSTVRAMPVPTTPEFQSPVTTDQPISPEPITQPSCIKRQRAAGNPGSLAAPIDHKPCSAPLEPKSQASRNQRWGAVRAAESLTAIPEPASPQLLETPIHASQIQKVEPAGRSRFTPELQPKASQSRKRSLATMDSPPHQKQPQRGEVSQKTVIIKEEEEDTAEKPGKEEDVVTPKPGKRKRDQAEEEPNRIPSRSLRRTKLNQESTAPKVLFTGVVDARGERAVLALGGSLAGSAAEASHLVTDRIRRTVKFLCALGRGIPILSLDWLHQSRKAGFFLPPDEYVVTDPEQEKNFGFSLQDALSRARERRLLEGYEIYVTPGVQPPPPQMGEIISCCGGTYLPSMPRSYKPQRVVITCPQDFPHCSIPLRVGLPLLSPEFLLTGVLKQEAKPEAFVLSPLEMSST
# UniProt Q13425: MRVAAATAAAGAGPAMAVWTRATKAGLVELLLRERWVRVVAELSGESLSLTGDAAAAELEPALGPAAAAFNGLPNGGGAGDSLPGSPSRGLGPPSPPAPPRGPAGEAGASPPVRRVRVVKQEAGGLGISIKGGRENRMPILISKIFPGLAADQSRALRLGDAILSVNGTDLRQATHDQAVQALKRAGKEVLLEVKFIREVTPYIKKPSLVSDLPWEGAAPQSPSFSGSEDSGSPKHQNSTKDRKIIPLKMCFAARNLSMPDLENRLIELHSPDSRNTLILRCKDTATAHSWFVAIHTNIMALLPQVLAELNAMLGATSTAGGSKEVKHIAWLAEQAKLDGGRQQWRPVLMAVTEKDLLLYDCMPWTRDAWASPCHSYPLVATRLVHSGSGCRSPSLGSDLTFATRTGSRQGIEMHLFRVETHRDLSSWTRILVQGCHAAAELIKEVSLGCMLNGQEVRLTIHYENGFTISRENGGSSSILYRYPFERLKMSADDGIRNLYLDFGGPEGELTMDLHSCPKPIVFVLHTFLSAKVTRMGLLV
# UniProt Q14683: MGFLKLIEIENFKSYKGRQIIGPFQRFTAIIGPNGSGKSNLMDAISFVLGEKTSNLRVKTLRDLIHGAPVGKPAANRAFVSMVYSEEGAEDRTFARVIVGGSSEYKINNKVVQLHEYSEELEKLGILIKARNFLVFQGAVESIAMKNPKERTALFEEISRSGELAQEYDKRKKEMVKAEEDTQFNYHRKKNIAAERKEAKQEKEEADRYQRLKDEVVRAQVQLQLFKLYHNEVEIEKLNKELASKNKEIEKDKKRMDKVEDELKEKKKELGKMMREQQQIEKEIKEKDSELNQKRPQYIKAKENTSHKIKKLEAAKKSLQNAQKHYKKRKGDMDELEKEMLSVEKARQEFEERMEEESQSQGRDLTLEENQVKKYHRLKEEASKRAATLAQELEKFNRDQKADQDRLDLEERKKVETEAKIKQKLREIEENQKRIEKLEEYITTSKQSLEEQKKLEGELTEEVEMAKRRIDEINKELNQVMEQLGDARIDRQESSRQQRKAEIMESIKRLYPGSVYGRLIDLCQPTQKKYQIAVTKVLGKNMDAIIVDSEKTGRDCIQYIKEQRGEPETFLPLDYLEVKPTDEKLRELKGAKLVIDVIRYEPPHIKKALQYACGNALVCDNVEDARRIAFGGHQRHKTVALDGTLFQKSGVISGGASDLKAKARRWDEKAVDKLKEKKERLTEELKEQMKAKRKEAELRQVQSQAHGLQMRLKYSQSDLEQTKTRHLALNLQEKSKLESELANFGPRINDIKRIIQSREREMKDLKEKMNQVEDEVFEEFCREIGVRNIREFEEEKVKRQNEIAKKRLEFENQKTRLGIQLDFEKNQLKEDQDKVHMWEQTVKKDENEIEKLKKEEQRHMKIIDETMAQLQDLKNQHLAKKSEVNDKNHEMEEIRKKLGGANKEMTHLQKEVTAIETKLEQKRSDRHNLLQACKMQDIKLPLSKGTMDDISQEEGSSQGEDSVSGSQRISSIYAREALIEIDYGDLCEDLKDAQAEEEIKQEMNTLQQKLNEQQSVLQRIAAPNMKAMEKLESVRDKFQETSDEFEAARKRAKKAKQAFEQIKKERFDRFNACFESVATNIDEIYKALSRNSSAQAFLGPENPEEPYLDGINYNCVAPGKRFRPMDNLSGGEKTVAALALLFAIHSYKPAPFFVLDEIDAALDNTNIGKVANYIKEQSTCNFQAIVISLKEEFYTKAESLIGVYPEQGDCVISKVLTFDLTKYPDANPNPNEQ
# UniProt Q14738, whole entry: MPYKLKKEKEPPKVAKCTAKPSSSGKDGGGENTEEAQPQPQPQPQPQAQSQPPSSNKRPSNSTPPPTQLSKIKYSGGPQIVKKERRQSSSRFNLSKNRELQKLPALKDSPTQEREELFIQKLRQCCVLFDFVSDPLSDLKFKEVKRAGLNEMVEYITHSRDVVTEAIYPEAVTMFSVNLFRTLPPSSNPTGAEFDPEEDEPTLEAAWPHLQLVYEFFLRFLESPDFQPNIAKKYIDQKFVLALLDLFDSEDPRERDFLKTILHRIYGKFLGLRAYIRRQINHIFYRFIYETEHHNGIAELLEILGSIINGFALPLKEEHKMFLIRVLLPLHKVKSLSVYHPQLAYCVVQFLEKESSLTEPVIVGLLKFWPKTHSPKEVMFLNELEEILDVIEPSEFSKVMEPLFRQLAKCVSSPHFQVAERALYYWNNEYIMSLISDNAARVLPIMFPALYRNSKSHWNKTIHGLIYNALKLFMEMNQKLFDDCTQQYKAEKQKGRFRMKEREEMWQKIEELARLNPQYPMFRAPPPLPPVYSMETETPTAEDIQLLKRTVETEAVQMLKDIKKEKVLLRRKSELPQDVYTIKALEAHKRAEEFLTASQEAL
# UniProt Q13480: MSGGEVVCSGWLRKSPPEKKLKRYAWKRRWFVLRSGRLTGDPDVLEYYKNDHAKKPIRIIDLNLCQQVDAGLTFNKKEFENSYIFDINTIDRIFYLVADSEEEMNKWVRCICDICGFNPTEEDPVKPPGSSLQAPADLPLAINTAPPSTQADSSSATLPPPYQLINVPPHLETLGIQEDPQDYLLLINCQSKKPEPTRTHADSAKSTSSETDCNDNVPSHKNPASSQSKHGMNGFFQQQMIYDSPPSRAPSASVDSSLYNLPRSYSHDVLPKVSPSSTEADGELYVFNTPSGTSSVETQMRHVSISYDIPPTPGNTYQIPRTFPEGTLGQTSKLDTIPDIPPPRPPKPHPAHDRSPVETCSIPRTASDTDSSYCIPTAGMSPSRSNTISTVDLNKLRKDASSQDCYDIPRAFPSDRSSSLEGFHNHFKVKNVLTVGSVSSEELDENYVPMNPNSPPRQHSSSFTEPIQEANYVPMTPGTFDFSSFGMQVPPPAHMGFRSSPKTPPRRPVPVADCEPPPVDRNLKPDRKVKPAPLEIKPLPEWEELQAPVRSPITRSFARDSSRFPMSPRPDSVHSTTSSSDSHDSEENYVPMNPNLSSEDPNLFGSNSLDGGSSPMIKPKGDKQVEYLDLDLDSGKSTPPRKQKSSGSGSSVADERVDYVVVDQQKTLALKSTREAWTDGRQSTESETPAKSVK
# UniProt Q14166: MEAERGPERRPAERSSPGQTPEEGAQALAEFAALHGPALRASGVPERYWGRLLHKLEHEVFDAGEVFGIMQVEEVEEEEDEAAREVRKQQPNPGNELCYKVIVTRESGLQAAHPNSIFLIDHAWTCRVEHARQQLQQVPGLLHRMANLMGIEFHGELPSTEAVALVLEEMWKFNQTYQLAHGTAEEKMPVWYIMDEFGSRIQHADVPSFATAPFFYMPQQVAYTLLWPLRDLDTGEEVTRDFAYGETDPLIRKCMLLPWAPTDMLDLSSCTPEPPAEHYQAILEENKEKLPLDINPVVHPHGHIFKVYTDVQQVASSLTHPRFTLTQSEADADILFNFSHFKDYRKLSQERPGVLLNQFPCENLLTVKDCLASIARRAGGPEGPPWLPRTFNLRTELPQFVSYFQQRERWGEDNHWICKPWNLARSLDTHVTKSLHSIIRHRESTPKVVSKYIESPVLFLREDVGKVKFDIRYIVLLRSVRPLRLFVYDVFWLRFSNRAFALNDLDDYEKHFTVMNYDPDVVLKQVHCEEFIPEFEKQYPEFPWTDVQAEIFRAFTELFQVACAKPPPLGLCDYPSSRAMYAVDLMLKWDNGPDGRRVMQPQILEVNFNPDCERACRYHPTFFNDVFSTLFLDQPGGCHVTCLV
# Compound: CN[C@@H]1C[C@H]2O[C@@](C)([C@@H]1OC)n1c3ccccc3c3c4c(c5c6ccccc6n2c5c31)C(=O)NC4 [staurosporine]
# Test: log2 fold change of tryptic peptide abundance, ligand vs vehicle (limited proteolysis) (log2 ratio); higher = more trypsin-susceptible (destabilized)
# Conditions: ligand concentration: 20 uM; sample: K562 cleared lysate; digestion: 4 min, 22 C (HT-PELSA RT4min, Orbitrap Astral)
row,Target,log2 fold change
1,"UniProt Q14141 (peptide sequence: IHVCLYFIAPTGHSLK, peptide start residue: 148)",-0.478
2,"MDC1 (peptide sequence: AHEVGAQGGPPVAQVEQDLPISR, peptide start residue: 620) (UniProt Q14676)",-0.527
3,"SNTB2 (peptide sequence: DAWASPCHSYPLVATR, peptide start residue: 368) (UniProt Q13425)",0.522
4,"SMC1A (peptide sequence: GEPETFLPLDYLEVKPTDEKLR, peptide start residue: 565) (UniProt Q14683)",0.278
5,"PPP2R5D (peptide sequence: AGLNEMVEYITHSR, peptide start residue: 147) (UniProt Q14738)",0.443
6,"GAB1 (peptide sequence: LTGDPDVLEYYKNDHAK, peptide start residue: 38) (UniProt Q13480)",-0.311
7,"DSG2 (peptide sequence: HSTVQHSYS, peptide start residue: 1110) (UniProt Q14126)",-0.516
8,"TTLL12 (peptide sequence: DCLASIAR, peptide start residue: 369) (UniProt Q14166)",0.169

# An excerpt of these results, as tab-separated lines:
row	Target	log2 fold change
1	UniProt Q14141 (peptide sequence: IHVCLYFIAPTGHSLK, peptide start residue: 148)	-0.478
5	PPP2R5D (peptide sequence: AGLNEMVEYITHSR, peptide start residue: 147) (UniProt Q14738)	0.443
